## Screening data, single-dose tests

Source: ChEMBL document CHEMBL3988442, “University of Dundee, Small-Polar-MMV Screening Library” (2021).

Each number is a percent effect as filed.
The record does not define 0% and 100%; most values in the screen are far below 50% and negative numbers occur (in some assays of this library far below -100).
The compounds are a random part of those screened.

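Growth of Mycobacterium tuberculosis over 3 days (7H9 medium with glucose and tyloxapol); the read-out is not stated. Tested at 500 µM. The record gives no direction; compounds that gave an IC50 in retests scored well above the rest, so higher reads as more growth inhibition. Size under these conditions: about 18,000 compounds, about 1,400 of them at 50% or above in at least one test.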

{"compound": "CCN(CC)CC(=O)Nc1ccc(C(=O)N(C)C)cc1", "Percent Effect": 5.833}
{"compound": "COc1cccc(CNCc2ccccn2)c1", "Percent Effect": 9.411}
{"compound": "Cc1cc(NC(=O)NCCCN2CCCC2=O)no1", "Percent Effect": -0.4996}
{"compound": "O=C(CCC(=O)c1cccs1)NC1CCCCNC1=O", "stereo": "stereo not drawn", "Percent Effect": 1.661}
{"compound": "CCOCC(C)OC(=O)c1ccnn1C", "stereo": "stereo not drawn", "Percent Effect": -8.7}
{"compound": "CC(C)c1nsc(NCC(O)CN2CCOCC2)n1", "stereo": "stereo not drawn", "Percent Effect": 0.4061}
{"compound": "CN(CCN(C)C(=O)C1CC=CC1)C(=O)C1CC=CC1", "Percent Effect": 6.412}
{"compound": "Cc1noc(C)c1CNC(=O)CCn1nnnc1C", "Percent Effect": -1.951}
{"compound": "Cc1cc(N(C)C)nc(N2CCCC2C(=O)N(C)C)n1", "stereo": "stereo not drawn", "Percent Effect": -0.1255}
{"compound": "CN(C)C(CNC(=O)CN1CCCC1=O)c1ccco1", "stereo": "stereo not drawn", "Percent Effect": 7.436}
{"compound": "COCc1ncc(C)n1C1CCCNC1", "stereo": "stereo not drawn", "Percent Effect": 3.918}
{"compound": "CC(OC(=O)c1ccc(C(F)(F)F)cc1)C(N)=O", "stereo": "stereo not drawn", "Percent Effect": 67.97}
{"compound": "c1cc2c(cc1NC1CCCOC1)COC2", "stereo": "stereo not drawn", "Percent Effect": 19.93}
{"compound": "NC1=NN=C(c2ccc(Br)cc2)CS1", "Percent Effect": -3.947}
{"compound": "COc1ccc(F)c(N2CCNCC2)c1", "Percent Effect": 44.86}
{"compound": "CC(C#N)N1CCN(C(=O)OC(C)(C)C)CC1", "stereo": "stereo not drawn", "Percent Effect": 6.35}
{"compound": "Cn1c(SCC(=O)NC(N)=O)nnc1C(F)(F)F", "Percent Effect": -7.095}
{"compound": "CCOCCN1CCN(CCCN2CCCC2=O)CC1", "Percent Effect": -12.14}
{"compound": "NCC(O)c1ccc(Cl)s1", "stereo": "stereo not drawn", "Percent Effect": 64.65}
{"compound": "N#Cc1ccc(CN2CCn3ccnc3C2)c(F)c1", "Percent Effect": 7.487}
{"compound": "Cc1nc(C2(N)CCC2)no1", "Percent Effect": -9.218}
{"compound": "COCCN1CCCN(C(C)=O)CC1", "Percent Effect": 5.605}
{"compound": "COc1ccc(NC(=O)CCn2ccnc2)cc1", "Percent Effect": 10.97}
{"compound": "CC(C)c1noc(CN2CCC(CC(N)=O)CC2)n1", "Percent Effect": 14.37}
{"compound": "COc1cc(CCCN)cc(OC)c1O", "Percent Effect": 16.91}
{"compound": "Cc1cc(NC(=O)NCC(O)c2ccccc2F)no1", "stereo": "stereo not drawn", "Percent Effect": -10.63}
{"compound": "COCC(=O)NC1CCNCC1", "Percent Effect": -2.535}
{"compound": "Cc1c(C(=O)N2CCNC(=O)C2)oc2ccc(Cl)cc12", "Percent Effect": 47.69}
{"compound": "CN(CC(C)(C)S(C)(=O)=O)S(=O)(=O)c1ccccc1Cl", "Percent Effect": 25.03}
{"compound": "Cc1cc(C(=O)NCC(F)F)c2c(C)nn(C)c2n1", "Percent Effect": -23.96}
{"compound": "Cc1cc(C(=O)NCC2CCCCC(=O)N2)n(C)n1", "stereo": "stereo not drawn", "Percent Effect": -8.515}
{"compound": "CN(C)c1cc(CN)ccn1", "Percent Effect": 22.11}
{"compound": "CC(C)CCC(=O)NCc1ccnc(N(C)C)c1", "Percent Effect": 28.67}

For reference, 4 entries once more:

{"compound": "CCOCCN1CCN(CCCN2CCCC2=O)CC1", "Percent Effect": -12.14}
{"compound": "Cc1cc(C(=O)NCC(F)F)c2c(C)nn(C)c2n1", "Percent Effect": -23.96}
{"compound": "COCC(=O)NC1CCNCC1", "Percent Effect": -2.535}
{"compound": "NCC(O)c1ccc(Cl)s1", "stereo": "stereo not drawn", "Percent Effect": 64.65}